For the test, the target named is T1, Flag-tagged TTK protein kinase (UniProt P33981).
T1 sequence: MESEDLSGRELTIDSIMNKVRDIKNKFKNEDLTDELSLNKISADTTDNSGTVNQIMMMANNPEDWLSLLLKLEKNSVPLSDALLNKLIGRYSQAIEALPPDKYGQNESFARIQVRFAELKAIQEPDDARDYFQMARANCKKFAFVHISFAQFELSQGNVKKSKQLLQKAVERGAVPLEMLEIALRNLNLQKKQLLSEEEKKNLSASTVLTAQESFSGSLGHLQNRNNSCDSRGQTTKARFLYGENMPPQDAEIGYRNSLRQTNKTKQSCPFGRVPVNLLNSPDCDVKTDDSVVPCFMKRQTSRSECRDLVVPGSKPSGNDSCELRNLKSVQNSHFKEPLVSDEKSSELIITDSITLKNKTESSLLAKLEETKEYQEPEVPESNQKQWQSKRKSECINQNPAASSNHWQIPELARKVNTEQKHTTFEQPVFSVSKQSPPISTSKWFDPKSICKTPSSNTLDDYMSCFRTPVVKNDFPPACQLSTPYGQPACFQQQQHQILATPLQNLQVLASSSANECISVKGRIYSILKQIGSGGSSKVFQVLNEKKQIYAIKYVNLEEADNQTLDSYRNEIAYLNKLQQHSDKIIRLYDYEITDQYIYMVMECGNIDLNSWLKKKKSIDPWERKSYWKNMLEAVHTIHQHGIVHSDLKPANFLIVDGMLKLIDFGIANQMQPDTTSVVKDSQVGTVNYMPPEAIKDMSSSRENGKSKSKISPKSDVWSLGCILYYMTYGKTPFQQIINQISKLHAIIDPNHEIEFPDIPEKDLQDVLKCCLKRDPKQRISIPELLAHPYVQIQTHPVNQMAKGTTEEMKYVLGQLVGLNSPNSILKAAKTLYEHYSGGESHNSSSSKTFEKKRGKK
Nature of the test: co-IP; Flag-TTK immunoprecipitated from RT-112 and UM-UC-3 cells with an anti-Flag monoclonal antibody; IgG control; partner detected by Western blot with its own antibody. (Immunoblotting shows a protein as a band on a membrane.)

These are yes or no findings as the source states them, for the method shown. In cells and extracts the contact can be indirect. Some results given as binding are weak or reduced against the parent protein; the word gives no strength. Tags and fused reporters may be left off the sequences shown.

B1: SRSF3 (protein, UniProt P84103 1-164)
chain: MHRDSCPLDCKVYVGNLGNNGNKTELERAFGYYGPLRSVWVARNPPGFAFVEFEDPRDAADAVRELDGRTLCGCRVRVELSNGEKRSRNRGPPPSWGRRPRDDYRRRSPPPRRRSPRRRSFSRSRSRSLSRDRRRERSLSRERNHKPSRSFSRSRSRSRSNERK
Turning to B1, the binding entry was “binds”.
